Test results from article PMC9174463.

Amino acid sequences for entries named in this document (tags omitted).
UniProt F1RNW6, entry or part of it: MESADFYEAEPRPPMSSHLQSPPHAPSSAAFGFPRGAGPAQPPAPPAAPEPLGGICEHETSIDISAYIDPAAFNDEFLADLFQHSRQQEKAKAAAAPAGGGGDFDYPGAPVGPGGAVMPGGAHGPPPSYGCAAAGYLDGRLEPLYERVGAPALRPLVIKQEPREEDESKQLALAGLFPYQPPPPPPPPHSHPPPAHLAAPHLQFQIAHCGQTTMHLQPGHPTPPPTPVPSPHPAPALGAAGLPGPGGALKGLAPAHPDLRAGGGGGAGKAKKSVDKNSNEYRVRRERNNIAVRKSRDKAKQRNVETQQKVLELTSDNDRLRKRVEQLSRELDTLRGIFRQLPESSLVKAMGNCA

How the values were obtained:
[1] = target: C/EBPα (Sus scrofa (IPEC-J2 cells)) (UniProt F1RNW6); experiment: competition with a labelled probe; details: excess unlabeled probe competes the shift; 20 mM Tris-HCl pH 7.6, 50 mM KCl, 1 mM DTT, 0.5 mM EDTA, 10% glycerol, 4 ug poly(dI-dC), 2 ug nuclear extract, 25 C 30 min; 6% native PAGE in 0.5x TBE; protein in an extract; label: none (text also says unlabeled 5'-biotinylated)
[2] = target: C/EBPα (Sus scrofa (IPEC-J2 cells)) (UniProt F1RNW6); experiment: EMSA supershift; details: anti-C/EBPα antibody; 20 mM Tris-HCl pH 7.6, 50 mM KCl, 1 mM DTT, 0.5 mM EDTA, 10% glycerol, 4 ug poly(dI-dC), 2 ug nuclear extract, 25 C 30 min; 6% native PAGE in 0.5x TBE; protein in an extract; label: 5' biotin

Sequence | binding result [1] | binding result [2]
ACCGCGCTGGCGCAGCATCT (double strand) [TFF1 WT cold competitor] | binds | 
ACCGCGCTGGCGCAGCATCT (double strand) [TFF1 WT probe] |  | binds

The exact form of at least one protein or probe is not confirmed. Results from cells or extracts need not show a direct contact.
